Measurements reported in PubChem BioAssay AID1347426 (Functional Genomics Laboratory (NCATS/FGL), 2020).
Out of some 31,000 sequences screened, about 1,400 (4.5%) were called active.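 How the source made its calls: active means median seed-adjusted z-score above 1 or below -1; inactive means the rest.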 This is one part of the list.

Assay: Novel Modifiers of Survival Motor Neuron (SMN) Protein: Gene Identification via Genome-wide siRNA Screen;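 further: luminescence tracks full-length SMN protein made from the SMN2 reporter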
Settings: HEK293T SMN2-luciferase reporter, siRNA knockdown, 72 h; actives lie on both sides
Summary of the method: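 Steps: spot 1 pmol siRNA, add Lipofectamine RNAiMax in serum-free DMEM, seed HEK293T SMN2–luciferase reporter cells; incubate 72 h at 37 °C; add ONE-Glo; normalize luminescence to control siRNA, log10, MAD. Candidates: |MAD| > 1.0.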

Row | Sequence | median seed-adjusted z-score
1 | AGACGAGUGUAAUGUGGUATT against NPM3 | inactive: 0.0417
2 | GUAUGGAAAUUUCAUCGAUTT against GTPBP10 | inactive: 0
3 | GAAGAGUACUCUCAGUAUATT against ZNF615 | inactive: 0.0912
4 | CCAGGUUUUCAAUCAGAUUTT against SERPINE2 | inactive: 0.0144
5 | CAGAUGCUCUGAACCCUGATT against CASP10 | inactive: -0.0372
6 | GGCUAUAUGUUACCCUUGUTT against SVOPL | inactive: 0.439
7 | GGACCUUGUUCAGAACACUTT against HPCAL4 | inactive: 0.282
8 | CCGCGCAGUUCAUCUCAAATT against SNX15 | inactive: -0.152
9 | GCGCAUUACUUUCUAGAAATT against PEX5L | inactive: 0.0982
10 | GCUCCUAUGUAUUAGAUCATT against SERPINA4 | inactive: 0.419
11 | GAGAGAAGGUGAUACGCUATT against PAPPA2 | inactive: -0.173
12 | CUCCCAAUGAGGUUGUUAATT against ZBTB2 | inactive: 0.217
13 | GUGUACUCUUUUUAUGAAATT against ZNF430 | inactive: 0.681
14 | GGUGUUCCACGAGUUCUUUTT against DNAJB13 | inactive: 0.092
15 | GGACAUCCUGUCAUAGAAATT against UTP3 | active: -1.08
16 | CCUCUCCCAUGAGCACCAATT against NUDT2 | inactive: 0.891
17 | GGGCUCUAAUGAGACUAGATT against LRPPRC | inactive: -0.373
18 | CCAAAUCGCUCAAUAAGGATT against KATNAL2 | inactive: -0.85
19 | GGACUGUGAACGAAGGUUUTT against WT1 | inactive: 0.236
20 | GAAGAUUGCUAAUGACAAUTT against GOT1 | inactive: 0.0103
21 | CAGUGGAUGUGACAGUUCATT against CUTC | inactive: -0.377
22 | GCGAUCUCUUCGAUGCUUATT against E2F3 | inactive: -0.215

Row | Sequence | median seed-adjusted z-score
23 | GGAUGGUGCAGACUGUUCATT against CLDN18 | inactive: 0.000299
24 | CAUCCAAUGUCCCAAGGAATT against CCL8 | inactive: 0.436
25 | AGAGCUUCAUGGGAGGGAATT against BPIL3 | inactive: -0.0506
26 | CCACCUACUGUAACCAAAUTT against RNASE1 | inactive: 0.085
27 | GAGUGAUCCUUUCCUACAATT against GCLC | inactive: -0.21
28 | GGGUAGAAAAGACCAAGAUTT against ADRB3 | inactive: 0.17
29 | GGUCUCUAAUGAUAAGAAATT against PCDHB11 | inactive: -0.257
30 | UGGGAGGCCUUAUCCUCAATT against FXYD4 | inactive: -0.0447
31 | GGCUCGAGCUGGAAUCAUUTT against NPEPPS | inactive: 0
32 | GACCUUCACCGUUACGUUATT against HDLBP | active: -1.18
33 | CAAAGGACAGUAUUAUCUATT against RG9MTD1 | inactive: -0.375
34 | ACAUGGUUAUUCCCAGUGATT against AKR1CL2 | inactive: -0.949
35 | GAAGAUUACUGACCUGCGATT against RARA | inactive: -0.0195
36 | GCACCGUUUUAGUGAGAAUTT against PCDHA6 | inactive: 0.419
37 | CAACCGCAAAGUGAACAUUTT against AIFM3 | inactive: -0.727
38 | GGACUGUCCUGGUACCUGATT against CYP27B1 | inactive: -0.149
39 | CAGUAACGCGGACAAUGAATT against RHBG | inactive: -0.126
40 | CGUCUUUCCAGAAUUCAAATT against HGS | active: 1.16
41 | GUAAGGCUGCUAAUCUGUATT against ADHFE1 | inactive: 0.418
42 | GCAACAUGCAUGAAGCCGATT against GFAP | inactive: -0.312
43 | CAGAUGUACGAGCUCUUUATT against PPP5C | inactive: 0.473
44 | CAAAGGCAGUCUCAGCAUUTT against SYT12 | inactive: -0.329

Taken from above.
For median seed-adjusted z-score, GACCUUCACCGUUACGUUATT against HDLBP has active: -1.18
For median seed-adjusted z-score, AGAGCUUCAUGGGAGGGAATT against BPIL3 has inactive: -0.0506
For median seed-adjusted z-score, CAUCCAAUGUCCCAAGGAATT against CCL8 has inactive: 0.436
For median seed-adjusted z-score, CAGUAACGCGGACAAUGAATT against RHBG has inactive: -0.126

(continued)

Row | Sequence | median seed-adjusted z-score
45 | CAAGUCAGGUUUCAUGUAATT against IRAK1 | inactive: -0.232
46 | CGUGUCACCGCGACAAAAATT against RARG | inactive: -0.0492
47 | AGGUGAUGUCGGUCGGAGATT against RAB24 | inactive: 0.123
48 | CCUCUGCAAUUGUGCCCUUTT against ELF3 | inactive: 0.43
49 | CCAACUCCAUGUACAUCGATT against LCP2 | inactive: -0.826
50 | CUUUCCACCUGGGUACCAATT against FCGR3A | inactive: 0.0786
51 | GGCUAAAGACGGCUCGAAATT against FKBP7 | inactive: -0.053
52 | GAGCUGGAAUCGAUUAUAATT against CD38 | inactive: 0.192
53 | GUCCUGCAUCUAUAUUAAATT against ZRANB2 | inactive: 0.441
54 | AACUCCGAGUGUCUGCUGATT against GINS2 | inactive: 0.553
55 | GGAAGUGGGUGUCGAAGAATT against MAN1B1 | inactive: -0.88
56 | CACGCACAGUACUAGGUCATT against EXOSC3 | inactive: 0.569
57 | GGUCAAGCCGAGGACUGAATT against PPP2R3B | inactive: 0
58 | UGCCUGUGCCCUUCACCAATT against SLC9A3R1 | inactive: -0.418
59 | GUGAUGAGUUGAUACCAGATT against HSP90AB1 | inactive: 0
60 | CCACAAGGACGUAACAGAATT against CREB3L4 | inactive: 0.229
61 | GAACAUCUACUAUAAGAGUTT against GNMT | inactive: 0.0261
62 | AGACCGUUUUAGCACGGAATT against AP1S2 | inactive: -0.323
63 | GCCUACCAGAAUCAACUGATT against TBX20 | inactive: 0.00303
64 | GGUUUGGAAUGUUUGCUAATT against DEGS1 | inactive: 0.0268
65 | CCACAUAGGAUGUUGGUUATT against SLCO1A2 | inactive: -0.2
66 | GGCGAACUGUUUUAGAAGATT against CCNB2 | inactive: 0.0328

Row | Sequence | median seed-adjusted z-score
67 | GUUCGACACUUGGAGAGAATT against CFL2 | inactive: -0.148
68 | GGAGAUAGAUAACAAUCCATT against PSIP1 | inactive: 0.549
69 | CACUGAGAAUGCAUCCAAATT against CYP4B1 | inactive: -0.663
70 | CAGUGCUAGUUUCACCAAATT against DNAJC27 | inactive: 0.252
71 | GCAGUUAGAUCACCGAGUUTT against FRMD4B | inactive: -0.567
72 | GCUAGGAACAGAUAUCACATT against PDE6H | inactive: -0.0647
73 | GGAGAACAUUUUUAACGCATT against CACNA2D3 | inactive: 0.198
74 | GAACCAUUGCCGAGAGGUUTT against IDI2 | inactive: 0.578
75 | CGUACGAAGUUGAUGCUUATT against FXR1 | inactive: 0.131
76 | GAAAGCCUAUUAUCAGCUUTT against DNAJA3 | inactive: -0.0333
77 | GGACAUUUCAGUGAAAUGATT against ZNF345 | inactive: -0.275
78 | CGUGUAUACUCAAACACGATT against TGM6 | inactive: 0.0811
79 | GACUCAUCAUGAUACCAGUTT against APOF | inactive: 0.0982
80 | GCUCGAUGCUGAAACGCAUTT against ARID5B | inactive: 0
81 | CGAACAUCUCAAACUUACATT against BHLHB2 | inactive: 0
82 | CAUCCCAGAUCAAACUGUATT against TFAP2A | inactive: -0.384
83 | GCUCUGAGGGAGUAUCGAATT against TROVE2 | inactive: 0.399
84 | AGUUGUUACUGACUAUGUUTT against SDHD | inactive: -0.538
85 | GGGUAUGUAUAGGUGCAAATT against ZNF407 | inactive: 0.00802
86 | AAGUUAGUUUUGAAGAAUUTT against S100G | inactive: -0.809
87 | GCGAGGCUGUUAACCCUUATT against PRKCQ | inactive: 0.692
88 | AGAGACCCAUGGGAACAAATT against SIGMAR1 | active: -1.4

Row | Sequence | median seed-adjusted z-score
89 | GGGACGACAUAUAUCUUUATT against NRXN1 | inactive: 0.433
90 | CAUCGAUUUGAAGAAAAAUTT against DDI1 | inactive: 0.259
91 | AGCGACCUGUUGCACAUGATT against GALR2 | inactive: -0.0832
92 | CACCAUAUGUUCCACGAUUTT against EPS8 | inactive: 0
93 | CUAUGCUAGUCGUCCUGAATT against GALNT7 | inactive: -0.63
94 | CGUGAAUACCUUUUAGACATT against GATAD2B | inactive: 0.218
95 | GGCAUUGAGUCAACUCCGATT against ZNF287 | inactive: 0.0213
96 | GGAUCCUGGUGUUCAACAATT against BAI1 | inactive: -0.663
97 | GGACUAAAUCUACAAGUGATT against CACNG3 | inactive: -0.189
98 | GCAUCGCUGUAGGUUUUGATT against THBS2 | inactive: -0.721
99 | CACUUUUAUGAUAACCCAATT against LGR6 | inactive: 0.237
100 | GAACAACAGCAAAUCCGGUTT against PHF21A | inactive: 0.179
101 | GGACAGCUUUCUUCGGGAATT against SULF2 | inactive: -0.109
102 | GGACACUGAAAUUCGCAUATT against ATP1B1 | inactive: 0.971
103 | CGGCUGGUUAUGUAACAAATT against QTRTD1 | inactive: 0.377
104 | CUGCAAUGCUGAUAUCGUATT against CNOT6 | inactive: 0.146
105 | GCUUGGUGAUGGUACUCCUTT against FCGR3A | inactive: 0.0786
106 | GGACUUCUGAAAAUUCGCATT against EP400 | active: 1.83
107 | GACCUUGAAUCAGAGAUUUTT against HHEX | inactive: -0.428
